Source: the supplement of paper PMC4604168 (melanoma cell lines)
This is one part of the list. Single values are uncertain, as repeats are few or missing.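 The apoptosis fraction was the count of cleaved-PARP antibody-stained nuclei relative to all DNA-stained nuclei, imaged in 1,536-well plates. Screening doses were set so most cells survived, and baseline and induced cleaved-PARP levels vary greatly across cell lines.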

test system: MZ2-MEL; assay: cleaved PARP positive nuclei fraction relative to DMSO control; melanoma cells; higher = more apoptosis; details: library dose: low library concentration; 72 h

| Structure (SMILES) | cleaved PARP positive nuclei fraction |
| --- | --- |
| Cc1cn(-c2cc(NC(=O)c3ccc(C)c(Nc4nccc(-c5cccnc5)n4)c3)cc(C(F)(F)F)c2)cn1 [nilotinib] + NC(=O)c1ccc(N(C(N)=O)c2c(F)cccc2F)nc1-c1ccc(F)cc1F [VX702] (first compound 0.2 µM, partner dose 0.4 µM) | 72.1% |
| CC[C@]1(O)C[C@H]2CN(CCc3c([nH]c4ccccc34)[C@@](C(=O)OC)(c3cc4c(cc3OC)N(C=O)[C@H]3[C@@](O)(C(=O)OC)[C@H](OC(C)=O)[C@]5(CC)C=CCN6CC[C@]43[C@@H]65)C2)C1 [vincristine] + C[C@@H](N)c1ccc(C(=O)Nc2ccnc3[nH]ccc23)cc1 [RKI983] (first compound 0.0001 µM, partner dose 0.4 µM) | 240% |
| Cc1cn(-c2cc(NC(=O)c3ccc(C)c(Nc4nccc(-c5cccnc5)n4)c3)cc(C(F)(F)F)c2)cn1 [nilotinib] + CC(C)C[C@H](NC(=O)[C@H](Cc1ccccc1)NC(=O)c1cnccn1)B(O)O [Bortezomib] (first compound 0.2 µM, partner dose 0.001 µM) | 159% |
| O=C(Nc1cc(C(F)(F)F)cc(C(F)(F)F)c1)c1cc(Cl)ccc1O + CC(=O)c1c(C)c2cnc(Nc3ccc(N4CCNCC4)cn3)nc2n(C2CCCC2)c1=O [palbociclib] (first compound 0.016 µM, partner dose 0.04 µM) | 44.5% |
| O=C(Nc1cc(C(F)(F)F)cc(C(F)(F)F)c1)c1cc(Cl)ccc1O + OCc1c[nH]c2ccccc12 [Indole-3-carbinol] (first compound 0.016 µM, partner dose 0.8 µM) | 119% |
| COc1cc([C@@H]2c3cc4c(cc3[C@@H](O[C@@H]3O[C@@H]5CO[C@@H](C)O[C@H]5[C@H](O)[C@H]3O)[C@H]3COC(=O)[C@H]23)OCO4)cc(OC)c1O [etoposide] + CS(=O)(=O)CCNCc1ccc(-c2ccc3ncnc(Nc4ccc(OCc5cccc(F)c5)c(Cl)c4)c3c2)o1 [lapatinib] (first compound 0.02 µM, partner dose 0.8 µM) | 91.8% |
| CCCCCCCCCCCCCCCCCCOP(=O)([O-])OC1CC[N+](C)(C)CC1 [Perifosine] + NC1(c2ccc(-c3nc4ccn5c(=O)[nH]nc5c4cc3-c3ccccc3)cc2)CCC1 [MK2206] (first compound 0.4 µM, partner dose 0.4 µM) | 142% |
| N#CC[C@H](C1CCCC1)n1cc(-c2ncnc3[nH]ccc23)cn1 [ruxolitinib] + COc1ccc(Cl)c(Nc2nc3ccccc3nc2NS(=O)(=O)c2cccc(NC(=O)C(C)(C)N)c2)c1 [XL147] (first compound 1 µM, partner dose 0.8 µM) | 152% |
| O=C(Nc1cc(C(F)(F)F)cc(C(F)(F)F)c1)c1cc(Cl)ccc1O + COc1ccc(C2=N[C@@H](c3ccc(Cl)cc3)[C@@H](c3ccc(Cl)cc3)N2C(=O)N2CCNC(=O)C2)c(OC(C)C)c1 [Nutlin-3] (first compound 0.016 µM, partner dose 0.1 µM) | 98.1% |
| Cc1cc(Nc2cc(N3CCN(C)CC3)nc(Sc3ccc(NC(=O)C4CC4)cc3)n2)n[nH]1 [Tozasertib] + CC[C@]1(O)C[C@H]2CN(CCc3c([nH]c4ccccc34)[C@@](C(=O)OC)(c3cc4c(cc3OC)N(C=O)[C@H]3[C@@](O)(C(=O)OC)[C@H](OC(C)=O)[C@]5(CC)C=CCN6CC[C@]43[C@@H]65)C2)C1 [vincristine] (first compound 0.006 µM, partner dose 0.0001 µM) | 200% |
| CC[C@]1(O)C[C@H]2CN(CCc3c([nH]c4ccccc34)[C@@](C(=O)OC)(c3cc4c(cc3OC)N(C=O)[C@H]3[C@@](O)(C(=O)OC)[C@H](OC(C)=O)[C@]5(CC)C=CCN6CC[C@]43[C@@H]65)C2)C1 [vincristine] + COc1ccc(Cl)c(Nc2nc3ccccc3nc2NS(=O)(=O)c2cccc(NC(=O)C(C)(C)N)c2)c1 [XL147] (first compound 0.0001 µM, partner dose 0.8 µM) | 94.8% |
| Cc1cn(-c2cc(NC(=O)c3ccc(C)c(Nc4nccc(-c5cccnc5)n4)c3)cc(C(F)(F)F)c2)cn1 [nilotinib] + COc1ccc(Cl)c(Nc2nc3ccccc3nc2NS(=O)(=O)c2cccc(NC(=O)C(C)(C)N)c2)c1 [XL147] (first compound 0.2 µM, partner dose 0.8 µM) | 40.9% |

Already shown: an excerpt of the list.

| Structure (SMILES) | cleaved PARP positive nuclei fraction |
| --- | --- |
| COc1cc([C@@H]2c3cc4c(cc3[C@@H](O[C@@H]3O[C@@H]5CO[C@@H](C)O[C@H]5[C@H](O)[C@H]3O)[C@H]3COC(=O)[C@H]23)OCO4)cc(OC)c1O [etoposide] + CS(=O)(=O)CCNCc1ccc(-c2ccc3ncnc(Nc4ccc(OCc5cccc(F)c5)c(Cl)c4)c3c2)o1 [lapatinib] (first compound 0.02 µM, partner dose 0.8 µM) | 91.8% |
| CCCCCCCCCCCCCCCCCCOP(=O)([O-])OC1CC[N+](C)(C)CC1 [Perifosine] + NC1(c2ccc(-c3nc4ccn5c(=O)[nH]nc5c4cc3-c3ccccc3)cc2)CCC1 [MK2206] (first compound 0.4 µM, partner dose 0.4 µM) | 142% |
